The text below walks through data of paper PMC10140023.

Sequences of proteins named here, by UniProt entry; tags and fusion partners are left off.
UniProt P28340: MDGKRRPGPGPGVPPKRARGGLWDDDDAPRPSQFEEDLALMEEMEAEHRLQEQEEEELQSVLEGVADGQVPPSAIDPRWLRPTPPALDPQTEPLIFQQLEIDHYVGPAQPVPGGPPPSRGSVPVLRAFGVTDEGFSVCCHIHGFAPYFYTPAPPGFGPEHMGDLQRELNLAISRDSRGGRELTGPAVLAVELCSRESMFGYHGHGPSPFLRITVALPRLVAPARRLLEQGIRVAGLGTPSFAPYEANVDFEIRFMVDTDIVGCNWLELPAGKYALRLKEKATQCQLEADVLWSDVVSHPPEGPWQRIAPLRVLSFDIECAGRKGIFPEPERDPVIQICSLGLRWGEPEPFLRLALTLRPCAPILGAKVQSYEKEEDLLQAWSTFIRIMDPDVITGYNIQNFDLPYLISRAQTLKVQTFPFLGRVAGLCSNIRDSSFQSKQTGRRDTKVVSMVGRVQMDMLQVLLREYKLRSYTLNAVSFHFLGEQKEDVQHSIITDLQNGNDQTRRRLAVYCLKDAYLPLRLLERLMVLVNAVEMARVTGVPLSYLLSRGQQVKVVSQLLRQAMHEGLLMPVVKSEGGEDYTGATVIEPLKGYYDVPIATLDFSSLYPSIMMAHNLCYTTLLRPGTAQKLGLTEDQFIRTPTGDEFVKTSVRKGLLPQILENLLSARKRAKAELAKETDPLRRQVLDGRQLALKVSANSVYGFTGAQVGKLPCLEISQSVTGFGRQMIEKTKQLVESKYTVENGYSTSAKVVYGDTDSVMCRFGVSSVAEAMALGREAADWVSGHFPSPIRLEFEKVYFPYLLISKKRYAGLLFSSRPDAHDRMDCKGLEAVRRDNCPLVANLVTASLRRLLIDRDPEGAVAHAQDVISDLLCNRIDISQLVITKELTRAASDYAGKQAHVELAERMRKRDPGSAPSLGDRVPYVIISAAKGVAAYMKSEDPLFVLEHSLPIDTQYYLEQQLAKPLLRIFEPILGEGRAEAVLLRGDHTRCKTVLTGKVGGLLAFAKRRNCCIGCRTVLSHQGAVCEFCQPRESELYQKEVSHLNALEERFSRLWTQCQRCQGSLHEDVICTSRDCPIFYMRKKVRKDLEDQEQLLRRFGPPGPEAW
UniProt Q969H0: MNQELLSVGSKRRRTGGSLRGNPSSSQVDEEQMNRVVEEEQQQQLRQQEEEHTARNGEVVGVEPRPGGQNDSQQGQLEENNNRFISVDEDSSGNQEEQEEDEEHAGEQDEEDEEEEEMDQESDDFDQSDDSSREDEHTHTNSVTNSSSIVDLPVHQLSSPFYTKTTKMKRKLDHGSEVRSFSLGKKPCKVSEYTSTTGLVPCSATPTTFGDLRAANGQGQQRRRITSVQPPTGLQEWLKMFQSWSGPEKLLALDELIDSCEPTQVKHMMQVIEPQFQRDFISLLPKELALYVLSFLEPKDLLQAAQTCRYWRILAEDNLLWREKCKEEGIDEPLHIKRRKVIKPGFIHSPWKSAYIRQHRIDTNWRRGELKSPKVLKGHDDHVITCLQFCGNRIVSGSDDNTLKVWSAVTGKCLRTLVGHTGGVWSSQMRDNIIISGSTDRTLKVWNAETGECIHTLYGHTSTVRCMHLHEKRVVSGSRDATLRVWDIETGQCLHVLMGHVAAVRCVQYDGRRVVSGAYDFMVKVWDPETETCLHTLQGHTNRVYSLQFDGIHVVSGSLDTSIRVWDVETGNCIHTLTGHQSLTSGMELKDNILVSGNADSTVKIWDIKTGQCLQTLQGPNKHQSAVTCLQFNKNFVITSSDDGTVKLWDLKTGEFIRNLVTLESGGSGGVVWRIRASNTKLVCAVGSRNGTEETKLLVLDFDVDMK

For this assay, the target named is Flag-POLD1 (human) (UniProt P28340). Put plainly: affinity purification with mass spectrometry; Flag-Vector or Flag-POLD1 transfected into 293T cells for 24 h, immunoprecipitation, LC-MS (Orbitrap Exploris 480), MaxQuant.

No constants are given. Whether binding was seen depends on the method and setting. In cells and extracts the contact can be indirect. These calls come from enrichment with a bait or labelling near it, and not all partners need be listed.

On to “FBXW7 (hit of the IP-MS) (from UniProt Q969H0 1-707)”, for which the binding entry was “binds”.
